# Source: the supplement of paper PMC8728848
# Some of the results follow.
# Legend:
# Assay in all cases: glycan array binding signal (z-score within array); higher = stronger binding
# Conditions in all cases: glycan notation: IUPAC condensed, linker removed
# Fuc(a1-2)Gal = molecular target: Fuc(a1-2)Gal
# Summary of the method: (§1)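 The Consortium for Functional Glycomics database supplied 3228 glycan arrays, of which those lacking an available protein sequence were dropped. The binding signal, a within-array Z-score, was averaged across arrays of the same protein sequence and across linkers. Negative scores can be read as non-binding.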
# Fuc(a1-2)Gal(b1-3)GalNAc = molecular target: Fuc(a1-2)Gal(b1-3)GalNAc
# Summary of the method: as §1
# [1] = molecular target: Fuc(a1-2)Gal(b1-3)GalNAc(a1-3)[Fuc(a1-2)]Gal(b1-4)Glc
# Summary of the method: as §1
# [2] = molecular target: Fuc(a1-2)Gal(b1-3)GalNAc(a1-3)[Fuc(a1-2)]Gal(b1-4)GlcNAc
# Summary of the method: as §1
# [3] = molecular target: Fuc(a1-2)Gal(b1-3)GalNAc(b1-3)Gal
# Summary of the method: as §1
# [4] = molecular target: Fuc(a1-2)Gal(b1-3)GalNAc(b1-3)Gal(a1-4)Gal(b1-4)Glc
# Summary of the method: as §1
# [5] = molecular target: Fuc(a1-2)Gal(b1-3)GalNAc(b1-4)[Neu5Ac(a2-3)]Gal(b1-4)Glc
# Summary of the method: as §1
# Fuc(a1-2)Gal(b1-3)GlcNAc = molecular target: Fuc(a1-2)Gal(b1-3)GlcNAc
# Summary of the method: as §1
# [6] = molecular target: Fuc(a1-2)Gal(b1-3)GlcNAc(b1-2)Man(a1-3)[Fuc(a1-2)Gal(b1-3)GlcNAc(b1-2)Man(a1-6)]Man(b1-4)GlcNAc(b1-4)GlcNAc
# Summary of the method: as §1
# [7] = molecular target: Fuc(a1-2)Gal(b1-3)GlcNAc(b1-2)Man(a1-3)[Fuc(a1-2)Gal(b1-3)GlcNAc(b1-2)Man(a1-6)]Man(b1-4)GlcNAc(b1-4)[Fuc(a1-6)]GlcNAc
# Summary of the method: as §1
# [8] = molecular target: Fuc(a1-2)Gal(b1-3)GlcNAc(b1-3)Gal(b1-4)Glc
# Summary of the method: as §1
# [9] = molecular target: Fuc(a1-2)Gal(b1-3)GlcNAc(b1-3)GalNAc
# Summary of the method: as §1
# [10] = molecular target: Fuc(a1-2)Gal(b1-3)GlcNAc(b1-3)[Fuc(a1-2)Gal(b1-3)GlcNAc(b1-6)]GalNAc
# Summary of the method: as §1
# [11] = molecular target: Fuc(a1-2)Gal(b1-3)GlcNAc(b1-3)[Gal(b1-4)GlcNAc(b1-6)]Gal(b1-4)Glc
# Summary of the method: as §1
# [12] = molecular target: Fuc(a1-2)Gal(b1-3)GlcNAc(b1-3)[Neu5Ac(a2-6)Gal(b1-4)GlcNAc(b1-6)]Gal(b1-4)Glc
# Summary of the method: as §1
# [13] = molecular target: Fuc(a1-2)Gal(b1-3)GlcNAc6S
# Summary of the method: as §1
# [14] = molecular target: Fuc(a1-2)Gal(b1-3)[Fuc(a1-4)]GlcNAc
# Summary of the method: as §1
# [15] = molecular target: Fuc(a1-2)Gal(b1-3)[Fuc(a1-4)]GlcNAc(b1-2)Man(a1-3)[Fuc(a1-2)Gal(b1-3)[Fuc(a1-4)]GlcNAc(b1-2)Man(a1-3)]Man(b1-4)GlcNAc(b1-4)GlcNAc
# Summary of the method: as §1
# [16] = molecular target: Fuc(a1-2)Gal(b1-3)[Fuc(a1-4)]GlcNAc(b1-2)Man(a1-3)[Fuc(a1-2)Gal(b1-3)[Fuc(a1-4)]GlcNAc(b1-2)Man(a1-6)]Man(b1-4)GlcNAc(b1-4)[Fuc(a1-6)]GlcNAc(b1-4)[Fuc(a1-6)]GlcNAc
# Summary of the method: as §1
# [17] = molecular target: Fuc(a1-2)Gal(b1-3)[Fuc(a1-4)]GlcNAc(b1-3)[Fuc(a1-3)[Gal(b1-4)]GlcNAc(b1-6)]Gal(b1-4)Glc
# Summary of the method: as §1
# [18] = molecular target: Fuc(a1-2)Gal(b1-3)[Fuc(a1-4)]GlcNAc(b1-3)[Gal(b1-4)GlcNAc(b1-6)]Gal(b1-4)Glc
# Summary of the method: as §1
# Fuc(a1-2)Gal(b1-4)Glc = molecular target: Fuc(a1-2)Gal(b1-4)Glc
# Summary of the method: as §1
# Fuc(a1-2)Gal(b1-4)Glc6S = molecular target: Fuc(a1-2)Gal(b1-4)Glc6S
# Summary of the method: as §1
# Fuc(a1-2)Gal(b1-4)GlcNAc = molecular target: Fuc(a1-2)Gal(b1-4)GlcNAc
# Summary of the method: as §1
# [19] = molecular target: Fuc(a1-2)Gal(b1-4)GlcNAc(b1-2)Man
# Summary of the method: as §1
# [20] = molecular target: Fuc(a1-2)Gal(b1-4)GlcNAc(b1-2)Man(a1-3)[Fuc(a1-2)Gal(b1-4)GlcNAc(b1-2)Man(a1-6)]Man(b1-4)GlcNAc(b1-4)GlcNAc
# Summary of the method: as §1
# [21] = molecular target: Fuc(a1-2)Gal(b1-4)GlcNAc(b1-2)Man(a1-3)[Fuc(a1-2)Gal(b1-4)GlcNAc(b1-2)Man(a1-6)]Man(b1-4)GlcNAc(b1-4)[Fuc(a1-6)]GlcNAc
# Summary of the method: as §1
# [22] = molecular target: Fuc(a1-2)Gal(b1-4)GlcNAc(b1-2)[Fuc(a1-2)Gal(b1-4)GlcNAc(b1-4)]Man(a1-3)[Fuc(a1-2)Gal(b1-4)GlcNAc(b1-2)Man(a1-6)]Man(b1-4)GlcNAc(b1-4)GlcNAc
# Summary of the method: as §1
# [23] = molecular target: Fuc(a1-2)Gal(b1-4)GlcNAc(b1-3)Gal(b1-4)GlcNAc
# Summary of the method: as §1
# [24] = molecular target: Fuc(a1-2)Gal(b1-4)GlcNAc(b1-3)Gal(b1-4)GlcNAc(b1-2)Man(a1-3)[Fuc(a1-2)Gal(b1-4)GlcNAc(b1-3)Gal(b1-4)GlcNAc(b1-2)Man(a1-6)]Man(b1-4)GlcNAc(b1-4)GlcNAc
# Summary of the method: as §1
# [25] = molecular target: Fuc(a1-2)Gal(b1-4)GlcNAc(b1-3)Gal(b1-4)GlcNAc(b1-3)Gal(b1-4)GlcNAc
# Summary of the method: as §1
# [26] = molecular target: Fuc(a1-2)Gal(b1-4)GlcNAc(b1-3)GalNAc
# Summary of the method: as §1
# [27] = molecular target: Fuc(a1-2)Gal(b1-4)GlcNAc(b1-3)[Fuc(a1-2)Gal(b1-4)GlcNAc(b1-6)]GalNAc
# Summary of the method: as §1
# [28] = molecular target: Fuc(a1-2)Gal(b1-4)GlcNAc(b1-3)[Fuc(a1-3)[Gal(b1-4)]GlcNAc(b1-6)]Gal(b1-4)Glc
# Summary of the method: as §1
# [29] = molecular target: Fuc(a1-2)Gal(b1-4)GlcNAc(b1-6)GalNAc
# Summary of the method: as §1
# [30] = molecular target: Fuc(a1-2)Gal(b1-4)GlcNAc6S
# Summary of the method: as §1
# [31] = molecular target: Fuc(a1-2)Gal(b1-4)[Fuc(a1-3)]GlcNAc
# Summary of the method: as §1
# [32] = molecular target: Fuc(a1-2)Gal(b1-4)[Fuc(a1-3)]GlcNAc(b1-2)Man(a1-3)[Fuc(a1-2)Gal(b1-4)[Fuc(a1-3)]GlcNAc(b1-2)Man(a1-6)]Man(b1-4)GlcNAc(b1-4)[Fuc(a1-6)]GlcNAc
# Summary of the method: as §1
# [33] = molecular target: Fuc(a1-2)Gal(b1-4)[Fuc(a1-3)]GlcNAc(b1-2)[Fuc(a1-2)Gal(b1-4)[Fuc(a1-3)]GlcNAc(b1-4)]Man(a1-3)[Fuc(a1-2)Gal(b1-4)[Fuc(a1-3)]GlcNAc(b1-2)Man(a1-6)]Man(b1-4)GlcNAc(b1-4)GlcNAc
# Summary of the method: as §1
# [34] = molecular target: Fuc(a1-2)Gal(b1-4)[Fuc(a1-3)]GlcNAc(b1-3)Gal(b1-4)[Fuc(a1-3)]GlcNAc
# Summary of the method: as §1
# [35] = molecular target: Fuc(a1-2)Gal(b1-4)[Fuc(a1-3)]GlcNAc(b1-3)Gal(b1-4)[Fuc(a1-3)]GlcNAc(b1-3)Gal(b1-4)[Fuc(a1-3)]GlcNAc
# Summary of the method: as §1
# [36] = molecular target: Fuc(a1-2)Gal(b1-4)[Fuc(a1-3)]GlcNAc(b1-3)GalNAc
# Summary of the method: as §1
# [37] = molecular target: Fuc(a1-2)Gal(b1-4)[Fuc(a1-3)]GlcNAc(b1-3)[Neu5Ac(a2-6)Gal(b1-4)GlcNAc(b1-6)]Gal(b1-4)Glc
# Summary of the method: as §1
# [38] = molecular target: Fuc(a1-2)Gal3S(b1-4)GlcNAc
# Summary of the method: as §1
# [39] = molecular target: Fuc(a1-2)Gal6S(b1-3)GlcNAc
# Summary of the method: as §1
binder,measurement,setting,value
PX14375D-bvu-513-34-513 (Bacteroides vulgatus) (protein) TEDTFWKDETDFNLALTSCYTPLKNALNGGYYGTRGVMLRIARADEVDFRNDISDVYTVNRFTNSNTNSLTQGMFYQFYNALYRTNSIMQKLEEKKEQFSTDFQNSVKGECLFIRGFYLFQLAKEFKDAPLRLTASQSPSTFPLAKSSQADIWAQAKEDLKTAASLLPITNKIGKPTQGAAYAALGKIYVYEENWQEAINVLEPLTQNPYTYKLVEDFNWNFDDTHENNAESIFELLIEDVGGTDLWGDGENINSTQSNTRPKEYAAAEVGGWYEANPTQQIMDIFWKEKDKDGNFDYRARCSVAWDYEGCTYYQRPFREVFAQDKWKTYWILKYQNWKTQKDEPAPPKSFINERAIRYADVLLMLAEAYMNKGALDTSIGYINQIRRRANLNDYSGPITKEGVFEDLVHQRAIEFFVEGERFYDLRRWGLLEQTLKTCDDTRYKNYQTGKSDNINKFNYFPIPAKELDTNPLCTPSEGW,glycan array binding signal (z-score),Fuc(a1-2)Gal,0.373
same,glycan array binding signal (z-score),Fuc(a1-2)Gal(b1-3)GalNAc,-0.315
same,glycan array binding signal (z-score),[1],-0.219
same,glycan array binding signal (z-score),[2],-0.323
same,glycan array binding signal (z-score),[3],-0.056
same,glycan array binding signal (z-score),[4],-0.694
same,glycan array binding signal (z-score),[5],0.3
same,glycan array binding signal (z-score),Fuc(a1-2)Gal(b1-3)GlcNAc,-0.892
same,glycan array binding signal (z-score),[6],1.56
same,glycan array binding signal (z-score),[7],0.425
same,glycan array binding signal (z-score),[8],-0.322
same,glycan array binding signal (z-score),[9],-0.35
same,glycan array binding signal (z-score),[10],0.041
same,glycan array binding signal (z-score),[11],0.231
same,glycan array binding signal (z-score),[12],0.112
same,glycan array binding signal (z-score),[13],0.675
same,glycan array binding signal (z-score),[14],-0.091
same,glycan array binding signal (z-score),[15],-0.328
same,glycan array binding signal (z-score),[16],2.03
same,glycan array binding signal (z-score),[17],-0.517
same,glycan array binding signal (z-score),[18],-0.295
same,glycan array binding signal (z-score),Fuc(a1-2)Gal(b1-4)Glc,-0.564
same,glycan array binding signal (z-score),Fuc(a1-2)Gal(b1-4)Glc6S,0.111
same,glycan array binding signal (z-score),Fuc(a1-2)Gal(b1-4)GlcNAc,0.501
same,glycan array binding signal (z-score),[19],-0.465
same,glycan array binding signal (z-score),[20],0.421
same,glycan array binding signal (z-score),[21],-0.653
same,glycan array binding signal (z-score),[22],1.01
same,glycan array binding signal (z-score),[23],-0.715
same,glycan array binding signal (z-score),[24],0.912
same,glycan array binding signal (z-score),[25],-0.384
same,glycan array binding signal (z-score),[26],0.752
same,glycan array binding signal (z-score),[27],-0.848
same,glycan array binding signal (z-score),[28],0.673
same,glycan array binding signal (z-score),[29],-0.542
same,glycan array binding signal (z-score),[30],-0.583
same,glycan array binding signal (z-score),[31],0.049
same,glycan array binding signal (z-score),[32],1.81
same,glycan array binding signal (z-score),[33],0.053
same,glycan array binding signal (z-score),[34],-0.512
same,glycan array binding signal (z-score),[35],-0.112
same,glycan array binding signal (z-score),[36],-0.44
same,glycan array binding signal (z-score),[37],-1.17
same,glycan array binding signal (z-score),[38],-0.619
same,glycan array binding signal (z-score),[39],0.295

# Three records drawn at random from those above:
binder,measurement,setting,value
PX14375D-bvu-513-34-513 (Bacteroides vulgatus) (protein) TEDTFWKDETDFNLALTSCYTPLKNALNGGYYGTRGVMLRIARADEVDFRNDISDVYTVNRFTNSNTNSLTQGMFYQFYNALYRTNSIMQKLEEKKEQFSTDFQNSVKGECLFIRGFYLFQLAKEFKDAPLRLTASQSPSTFPLAKSSQADIWAQAKEDLKTAASLLPITNKIGKPTQGAAYAALGKIYVYEENWQEAINVLEPLTQNPYTYKLVEDFNWNFDDTHENNAESIFELLIEDVGGTDLWGDGENINSTQSNTRPKEYAAAEVGGWYEANPTQQIMDIFWKEKDKDGNFDYRARCSVAWDYEGCTYYQRPFREVFAQDKWKTYWILKYQNWKTQKDEPAPPKSFINERAIRYADVLLMLAEAYMNKGALDTSIGYINQIRRRANLNDYSGPITKEGVFEDLVHQRAIEFFVEGERFYDLRRWGLLEQTLKTCDDTRYKNYQTGKSDNINKFNYFPIPAKELDTNPLCTPSEGW,glycan array binding signal (z-score),[37],-1.17
same,glycan array binding signal (z-score),[14],-0.091
same,glycan array binding signal (z-score),[31],0.049
